The values below come from paper PMC3112164.

These are yes or no findings as the source states them, for the method shown. Binding seen in cells or lysates may run through a third protein. Some results given as binding are weak or reduced against the parent protein; the word gives no strength.

The target of the test is c-met receptor tyrosine kinase (human (endogenous in SRB12-p9)), P08581. Put plainly: co-IP; IP experiments from WT and S3DN cells; data not shown. To be noted: remark: other sources report otherwise.

B1: FAK, Q05397 1-1052 (protein)
chain: MAAAYLDPNLNHTPNSSTKTHLGTGMERSPGAMERVLKVFHYFESNSEPTTWASIIRHGDATDVRGIIQKIVDSHKVKHVACYGFRLSHLRSEEVHWLHVDMGVSSVREKYELAHPPEEWKYELRIRYLPKGFLNQFTEDKPTLNFFYQQVKSDYMLEIADQVDQEIALKLGCLEIRRSYWEMRGNALEKKSNYEVLEKDVGLKRFFPKSLLDSVKAKTLRKLIQQTFRQFANLNREESILKFFEILSPVYRFDKECFKCALGSSWIISVELAIGPEEGISYLTDKGCNPTHLADFTQVQTIQYSNSEDKDRKGMLQLKIAGAPEPLTVTAPSLTIAENMADLIDGYCRLVNGTSQSFIIRPQKEGERALPSIPKLANSEKQGMRTHAVSVSETDDYAEIIDEEDTYTMPSTRDYEIQRERIELGRCIGEGQFGDVHQGIYMSPENPALAVAIKTCKNCTSDSVREKFLQEALTMRQFDHPHIVKLIGVITENPVWIIMELCTLGELRSFLQVRKYSLDLASLILYAYQLSTALAYLESKRFVHRDIAARNVLVSSNDCVKLGDFGLSRYMEDSTYYKASKGKLPIKWMAPESINFRRFTSASDVWMFGVCMWEILMHGVKPFQGVKNNDVIGRIENGERLPMPPNCPPTLYSLMTKCWAYDPSRRPRFTELKAQLSTILEEEKAQQEERMRMESRRQATVSWDSGGSDEAPPKPSRPGYPSPRSSEGFYPSPQHMVQTNHYQVSGYPGSHGITAMAGSIYPGQASLLDQTDSWNHRPQEIAMWQPNVEDSTVLDLRGIGQVLPTHLMEERLIRQQQEMEEDQRWLEKEERFLKPDVRLSRGSIDREDGSLQGPIGNQHIYQPVGKPDPAAPPKKPPRPGAPGHLGSLASLSSPADSYNEGVKLQPQEISPPPTANLDRSNDKVYENVTGLVKAVIEMSSKIQPAPPEEYVPMVKEVGLALRTLLATVDETIPLLPASTHREIEMAQKLLNSDLGELINKMKLAQQYVMTSLQQEYKKQMLTAAHALAVDAKNLLDVIDQARLKMLGQTRPH
As to B1, the binding entry was “binds”.
